Measured values published in paper doi:10.1101/598128 (bioRxiv, 2019).
Residue numbers refer to the chain shown, from its start. Names may count otherwise. These are yes or no findings as the source states them, for the method shown. For part of these data: Binding seen in cells or lysates may run through a third protein. Some binding calls cover weakened binding; strength is not graded here. Tags and fused reporters may be left off the sequences shown. Values belong to the binder of their own block, whether it stands above or below them.

Legend:
[1] = target: His-MBP-Pch2-2-144 (budding yeast) (UniProt P38126); test: SEC
[2] = target: T1, Pch2-E399Q (budding yeast) (UniProt P38126); test: co-IP
T1 sequence: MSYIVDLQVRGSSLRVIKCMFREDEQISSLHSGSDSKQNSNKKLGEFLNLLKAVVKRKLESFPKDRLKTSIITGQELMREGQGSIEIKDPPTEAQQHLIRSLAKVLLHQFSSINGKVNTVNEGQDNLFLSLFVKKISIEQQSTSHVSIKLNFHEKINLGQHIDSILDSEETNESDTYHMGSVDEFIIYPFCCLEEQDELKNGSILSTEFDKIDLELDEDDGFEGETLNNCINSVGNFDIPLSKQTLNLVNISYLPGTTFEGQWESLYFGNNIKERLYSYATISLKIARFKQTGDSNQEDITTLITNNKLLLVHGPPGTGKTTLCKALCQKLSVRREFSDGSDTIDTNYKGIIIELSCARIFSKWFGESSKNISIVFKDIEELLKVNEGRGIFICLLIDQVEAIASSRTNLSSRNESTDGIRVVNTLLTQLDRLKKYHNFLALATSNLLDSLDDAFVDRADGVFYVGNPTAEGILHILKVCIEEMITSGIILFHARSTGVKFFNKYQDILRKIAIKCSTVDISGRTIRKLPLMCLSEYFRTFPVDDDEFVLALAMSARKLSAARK

[3] = target: T2, Orc1 (yeast two-hybrid fusion) (budding yeast) (UniProt P54784); test: two-hybrid
T2 sequence: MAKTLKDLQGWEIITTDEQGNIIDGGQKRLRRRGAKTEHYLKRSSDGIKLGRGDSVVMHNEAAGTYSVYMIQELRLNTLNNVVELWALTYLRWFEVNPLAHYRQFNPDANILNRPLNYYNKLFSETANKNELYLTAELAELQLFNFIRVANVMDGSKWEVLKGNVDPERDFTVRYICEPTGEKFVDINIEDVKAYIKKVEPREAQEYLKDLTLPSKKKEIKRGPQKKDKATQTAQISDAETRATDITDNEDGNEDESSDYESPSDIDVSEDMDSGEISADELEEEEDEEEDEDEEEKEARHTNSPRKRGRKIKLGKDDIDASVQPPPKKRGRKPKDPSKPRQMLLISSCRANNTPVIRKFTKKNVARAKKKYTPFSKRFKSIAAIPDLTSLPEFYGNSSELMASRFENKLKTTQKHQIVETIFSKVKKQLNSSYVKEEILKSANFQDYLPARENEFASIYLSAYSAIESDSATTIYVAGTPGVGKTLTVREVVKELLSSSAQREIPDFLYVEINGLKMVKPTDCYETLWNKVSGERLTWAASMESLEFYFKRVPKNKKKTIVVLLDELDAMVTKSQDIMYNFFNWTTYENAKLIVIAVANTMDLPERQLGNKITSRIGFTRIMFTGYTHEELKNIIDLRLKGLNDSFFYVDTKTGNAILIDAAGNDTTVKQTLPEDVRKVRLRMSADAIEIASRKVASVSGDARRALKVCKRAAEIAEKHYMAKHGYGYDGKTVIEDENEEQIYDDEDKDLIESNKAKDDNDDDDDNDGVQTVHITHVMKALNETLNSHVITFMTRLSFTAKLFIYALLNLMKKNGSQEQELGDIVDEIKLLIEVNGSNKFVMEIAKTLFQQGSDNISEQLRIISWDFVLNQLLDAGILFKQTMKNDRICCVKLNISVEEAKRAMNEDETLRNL

[4] = target: T3, Orc3 (yeast two-hybrid fusion) (budding yeast) (UniProt P54790); test: two-hybrid
T3 sequence: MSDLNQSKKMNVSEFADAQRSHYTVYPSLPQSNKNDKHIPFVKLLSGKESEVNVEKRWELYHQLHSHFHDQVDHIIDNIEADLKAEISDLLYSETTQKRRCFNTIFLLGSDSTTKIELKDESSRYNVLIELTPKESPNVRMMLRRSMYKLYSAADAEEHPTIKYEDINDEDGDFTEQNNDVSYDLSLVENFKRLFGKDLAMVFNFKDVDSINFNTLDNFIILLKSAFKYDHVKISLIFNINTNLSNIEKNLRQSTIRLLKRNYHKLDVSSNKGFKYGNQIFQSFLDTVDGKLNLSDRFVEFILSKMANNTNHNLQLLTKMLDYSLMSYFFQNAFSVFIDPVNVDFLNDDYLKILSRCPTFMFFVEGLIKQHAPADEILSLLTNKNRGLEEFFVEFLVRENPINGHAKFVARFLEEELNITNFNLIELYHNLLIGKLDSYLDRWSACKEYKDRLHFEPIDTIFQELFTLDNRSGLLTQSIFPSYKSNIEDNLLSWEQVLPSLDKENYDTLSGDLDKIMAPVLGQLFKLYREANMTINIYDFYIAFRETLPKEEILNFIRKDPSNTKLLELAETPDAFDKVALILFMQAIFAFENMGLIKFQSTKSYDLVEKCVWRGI

[5] = target: T4, Orc4 (yeast two-hybrid fusion) (budding yeast) (UniProt P54791); test: two-hybrid
T4 sequence: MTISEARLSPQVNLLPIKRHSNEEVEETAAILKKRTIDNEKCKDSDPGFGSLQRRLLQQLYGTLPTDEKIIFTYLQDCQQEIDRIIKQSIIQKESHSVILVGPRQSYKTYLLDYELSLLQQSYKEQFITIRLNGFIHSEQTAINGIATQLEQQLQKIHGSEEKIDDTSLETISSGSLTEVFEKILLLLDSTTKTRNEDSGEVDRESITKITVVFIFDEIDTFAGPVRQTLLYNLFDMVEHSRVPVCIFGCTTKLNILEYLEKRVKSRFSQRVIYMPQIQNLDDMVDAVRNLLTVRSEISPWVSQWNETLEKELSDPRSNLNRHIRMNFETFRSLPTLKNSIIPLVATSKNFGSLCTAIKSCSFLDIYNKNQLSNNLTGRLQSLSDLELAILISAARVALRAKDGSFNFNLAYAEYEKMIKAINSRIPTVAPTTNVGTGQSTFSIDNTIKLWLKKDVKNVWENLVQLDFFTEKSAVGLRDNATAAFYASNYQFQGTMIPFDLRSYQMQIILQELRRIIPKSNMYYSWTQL

[6] = target: T5, Orc2 (precipitated with α-Orc2) (budding yeast (endogenous in SK1 meiotic cells)) (UniProt P32833); test: co-IP
T5 sequence: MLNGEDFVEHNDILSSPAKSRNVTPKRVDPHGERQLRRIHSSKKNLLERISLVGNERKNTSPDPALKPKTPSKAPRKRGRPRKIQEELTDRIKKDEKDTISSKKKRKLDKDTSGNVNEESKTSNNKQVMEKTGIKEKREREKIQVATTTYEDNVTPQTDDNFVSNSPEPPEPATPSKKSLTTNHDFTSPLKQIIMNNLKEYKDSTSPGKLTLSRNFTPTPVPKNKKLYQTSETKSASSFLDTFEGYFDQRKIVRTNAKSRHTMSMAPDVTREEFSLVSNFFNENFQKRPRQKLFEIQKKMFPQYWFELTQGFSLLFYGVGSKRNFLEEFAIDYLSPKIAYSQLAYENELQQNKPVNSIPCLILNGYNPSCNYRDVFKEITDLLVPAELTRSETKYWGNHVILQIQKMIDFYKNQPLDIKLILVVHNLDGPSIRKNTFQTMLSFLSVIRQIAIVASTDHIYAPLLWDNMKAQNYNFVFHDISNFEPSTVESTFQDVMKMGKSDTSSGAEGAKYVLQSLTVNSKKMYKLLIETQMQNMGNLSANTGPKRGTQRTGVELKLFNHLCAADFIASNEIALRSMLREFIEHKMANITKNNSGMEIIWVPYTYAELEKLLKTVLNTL

binding [1]: no binding (tested: 6 μM)
B1: His-MBP-Pch2-2-144 (domain or fragment, UniProt P38126 2-144)
chain: SYIVDLQVRGSSLRVIKCMFREDEQISSLHSGSDSKQNSNKKLGEFLNLLKAVVKRKLESFPKDRLKTSIITGQELMREGQGSIEIKDPPTEAQQHLIRSLAKVLLHQFSSINGKVNTVNEGQDNLFLSLFVKKISIEQQSTS

binding [2]: binds
B2: Orc1 (found with Pch2-E399Q in the α-HA IP and in the mass-spectrometric analysis) (protein, UniProt P54784 1-914)
chain: T2 sequence

binding [3]: binds
binding [4]: no binding
binding [5]: no binding
B3: Pch2 full length (yeast two-hybrid fusion) (protein, UniProt P38126 1-564)
chain: T1 sequence with Q399E

binding [6]: binds
B4: 3xFLAG-tagged Pch2-E399Q (protein, UniProt P38126 1-564)
chain: T1 sequence
